# Screening data, single-dose tests

From ChEMBL document CHEMBL3988442, “University of Dundee, Small-Polar-MMV Screening Library” (2021).

Results are given as percent effect.
The controls that fix the scale are not given in the record; negative values are as filed.
Compounds were drawn at random from those tested, without regard to their results.
Two or more numbers in one place are separate tests of the same structure; such repeats can differ widely.

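Whole-cell growth test on Mycobacterium tuberculosis, read after 4 days in a medium based on cholesterol and the lipid DPPC; the read-out is not stated. Concentration: 50 µM. Direction is inferred from retests: higher values go with more growth inhibition. Size under these conditions: about 69,000 compounds, about 370 of them at 50% or above in at least one test.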

| # | SMILES | percent effect |
|---|---|---|
| 1 | `Cc1cccc(NC(=O)NCC2(N3CCOCC3)CCSC2)c1` (centres undefined) | -19.71 |
| 2 | `CN1CC(=O)N(c2ccsc2)CC12CCN(C(=O)c1ccc[nH]1)C2` (centres undefined) | -31.9 |
| 3 | `O=C(O)[C@@H]1CN(CC2CCC2)C[C@H]1c1ccc(F)cc1` | -24.03 & -12.86 |
| 4 | `CCc1ccc(C(=O)Nc2cccc(CN3CCCC3C(N)=O)c2)cc1` (centres undefined) | 4.148 & -1.783 |
| 5 | `Cc1nc(NC(=O)c2c(-n3cnnn3)sc3c2CCC3)sc1C` | 0.4123 |
| 6 | `OCC(CO)N1CCC(c2nccnc2Nc2cnccn2)CC1` | -33.6 |
| 7 | `NC(=O)c1ccc(S(=O)(=O)NC2CCN(Cc3ccccc3)C2=O)cc1` (centres undefined) | -2.218 |
| 8 | `CC(C(=O)Nc1ncccn1)N1CCC(n2ccnc2)CC1` (centres undefined) | 2.787 & -7.065 |
| 9 | `O=C(O)C(F)(F)F.O=C(O)C(F)(F)F.c1cc(CN2CCCn3cnc(COCC4CC4)c3C2)ccn1` | 2.407 |
| 10 | `Cc1nnc2n1CCN(Cc1csc(-c3cnn(C)c3)n1)C2` | -28.97 |
| 11 | `COc1cccc(C2CCCN2C(=O)c2cc3c([nH]c2=O)CCC3)c1` (centres undefined) | 0.5203 & 10.21 |
| 12 | `Cc1oc(-c2ccco2)nc1CN1CCc2cnc(C(C)C)nc2C1` | -49.18 |
| 13 | `Cc1csc(C2(NCC(O)COc3ccc(F)cc3)CCC2)n1` (centres undefined) | -22.17 |
| 14 | `Cc1cccc(CN2CCCC23CCNC3)n1` (centres undefined) | -14.87 |
| 15 | `CN(C)C(=O)N1CCC(C(=O)N2CCOC(CC3CCCCC3)C2)CC1` (centres undefined) | 10.28 |
| 16 | `CN(C)[C@@H]1CCN(C(=O)c2ccco2)[C@H]1Cc1cnn(C)c1.O=C(O)C(F)(F)F` | -9.783 & -5.238 |
| 17 | `CCCc1nnc(NC(=O)N2CCCC(NC(C)=O)C2)s1` (centres undefined) | -20.54 |
| 18 | `O=C(O)C(F)(F)F.O=C(O)C(F)(F)F.[H][C@@]12CCCO[C@]1([H])[C@H](N(C)C(C)C)CN(Cc1cc(C)on1)C2` | -16.2 |
| 19 | `Cc1cc(CN2CCCC2)cc(Oc2ccc3c(c2)CC(CN)O3)c1` (centres undefined) | 26.23 |
| 20 | `CCC(=O)Nc1ccc(N2CCC(OC)CC2)c(C(F)(F)F)c1` | 6.634 |
| 21 | `CN(C1CCN(c2ccccn2)CC1)S(=O)(=O)c1ccc(F)cc1` | 4.178 |
| 22 | `COCC(=O)N1CCCC(C(=O)N(C)CCCc2cnn(C)c2)C1` (centres undefined) | -19.08 |
| 23 | `OCCOc1ccc(NCc2cc(F)cc3cccnc23)cn1` | 14.63 |
| 24 | `Cc1nc(CN(C)C(=O)C2CC(=O)N(c3cccc(O)c3)C2)cs1` (centres undefined) | -0.5339 & -13.69 |
| 25 | `O=C(CCc1ccsc1)N1CCC(N2CCNC2=O)CC1` | 1.025 |
| 26 | `COc1ccc(C[C@H]2CN(C(=O)c3ncccn3)CC[C@@H]2OC)cc1` | 9.62 |
| 27 | `NC(=O)CC1CCN(c2ncnc3cccc(F)c23)CC1` | -28.29 |
| 28 | `CS(=O)(=O)N1Cc2nccn2CC(CN2CCCC2=O)C1` (centres undefined) | -6.106 & -22.76 |
| 29 | `COCc1ccccc1CNc1cc(N2CCCC2CO)ncn1` (centres undefined) | -19.66 |
| 30 | `N#Cc1cnc2ccccc2c1N1CCNCC1` | -2.443 |
| 31 | `O=C(O)C(F)(F)F.c1csc(CN2Cc3nccn3CC(Cn3cncn3)C2)c1` (centres undefined) | -7.25 |
| 32 | `CCSCc1nc(O)c2nnn(C3CCN(Cc4ccco4)CC3)c2n1` | -15.24 & 4.15 |
| 33 | `[H][C@]12CCN(C(N)=O)[C@@]1([H])CC[C@H](COCc1csc(C)n1)O2` | -15.31 |
| 34 | `CNC(=O)c1nc(CN2CCOC(CCCC(C)C)C2)no1` (centres undefined) | -15.41 |
| 35 | `CCc1nc(NC(=O)NCCc2cscn2)nn1C` | -2.403 |
| 36 | `c1cc(CN2CCc3c(CN4CCCC4)n[nH]c3C2)ccn1` | -16.23 |
| 37 | `CN(C)C(=O)CN1CCN(C(=O)C2CSc3ccccc3O2)CC1` (centres undefined) | 7.372 |
| 38 | `CC1CN(C)CCN1Cc1cccc(C(=O)NCc2ccco2)c1` (centres undefined) | -33.45 |
| 39 | `CC(C)n1cnc2c(N3CCCC3)nc(C3CCNCC3)cc21.Cl.Cl` | 7.664 |
| 40 | `O=C(O)C(F)(F)F.O=C(O)C(F)(F)F.[H][C@@]12CN(Cc3nccs3)C[C@H](C(=O)NCCOC)[C@]1([H])CCO2` | 5.378 |
| 41 | `CN(CCN1CCOC1=O)CC(=O)Nc1ccc(Cl)c(C(F)(F)F)c1` | 5.116 |
| 42 | `CCN1CCCn2c(nc(CNC(=O)c3ccsc3)cc2=O)C1` | -4.75 |
| 43 | `CN(C)c1ccc(NC(=O)N2CCCCC2c2ncc[nH]2)cn1` (centres undefined) | -9.247 |
| 44 | `CCN1C(=O)C(C)(C)c2cc(NC(=O)c3ccco3)ccc21` | -3.708 |
| 45 | `O=C(NCC(O)c1ccc(F)cc1F)c1ccccc1` (centres undefined) | -11.47 |
| 46 | `O=C(c1ccoc1)N1CCCC1C1CCN(Cc2ccccc2)CC1` (centres undefined) | -2.363 |
| 47 | `CC(C)(C)c1nc(CN2CCOC(Cn3cccn3)C2)no1` (centres undefined) | -1.853 |
| 48 | `O=C(C[S+]([O-])Cc1ccc(F)cc1)N1CCc2sccc2C1` (centres undefined) | -0.1758 |
| 49 | `COC(=O)CNC(=O)CC1COc2ccc(C(=O)N(C)C)cc2N1C` (centres undefined) | -5.615 |
| 50 | `Cc1ccc(-c2nc(CC3CCN(C)CC3)no2)cc1N1CCNC1=O` | -12.21 |
| 51 | `Cc1csc2nc3n(c(=O)c12)CCN(C(=O)c1ccncc1)CC3` | -1.559 |
| 52 | `O=C(c1cn(-c2ccccc2)nn1)N1CCCC(n2cccn2)C1` (centres undefined) | -18.2 |
| 53 | `CNc1cncc(C2CCCN2C(=O)c2ccc3oc(C)cc3c2)n1` (centres undefined) | -7.61 |
| 54 | `O=C(NC[C@H]1OC[C@@H](NC2CCOCC2)[C@@H]1O)C1CCCC1` | -5.136 |
| 55 | `Cc1ccc(S(=O)(=O)NC2CNC(=O)C2)cc1C` (centres undefined) | 13.94 |
| 56 | `Cc1nc(C(F)(F)F)nc(N2CCC(O)(C(=O)O)CC2)c1C` | 6.69 |
| 57 | `CC(NC(=O)NCCS(C)(=O)=O)c1ccc2c(c1)CCC(=O)N2` (centres undefined) | -1.221 |
| 58 | `COc1cc(-n2cccc2)c(Cl)cc1C(=O)NS(C)(=O)=O` | 19.76 |
| 59 | `O=C(O)C(F)(F)F.O=C(O)C(F)(F)F.O=C(O)C(F)(F)F.c1cncc(CN2CCC3(CC2)CC(c2cccnc2)CO3)c1` (centres undefined) | 15.87 |
| 60 | `O=C(CN1C(=O)CCNC1=O)N1CCOC(c2ccc(Cl)c(Cl)c2)C1` (centres undefined) | 2.254 & -25.53 |

The last 6 entries again:

* Cc1ccc(S(=O)(=O)NC2CNC(=O)C2)cc1C (centres undefined) | 13.94%
* Cc1nc(C(F)(F)F)nc(N2CCC(O)(C(=O)O)CC2)c1C | 6.69%
* CC(NC(=O)NCCS(C)(=O)=O)c1ccc2c(c1)CCC(=O)N2 (centres undefined) | -1.221%
* COc1cc(-n2cccc2)c(Cl)cc1C(=O)NS(C)(=O)=O | 19.76%
* O=C(O)C(F)(F)F.O=C(O)C(F)(F)F.O=C(O)C(F)(F)F.c1cncc(CN2CCC3(CC2)CC(c2cccnc2)CO3)c1 (centres undefined) | 15.87%
* O=C(CN1C(=O)CCNC1=O)N1CCOC(c2ccc(Cl)c(Cl)c2)C1 (centres undefined) | 2.254% & -25.53%